For the data set, the system named is Affected sheep bone marrow cells (SBM). Nature of the data set: GM1 induction in affected sheep bone marrow cells by different treatments, CTB-Alexa 488 staining (Table 2). The conditions noted are these: 72 H (Poly-L-Lysine coated coverslips 6 Days).

Consider `CCN(CC)CCCC(C)Nc1ccnc2cc(Cl)ccc12` (centres unmarked) [Chloroquine, chloroquine], for which the Observations result is recorded as “Vesicular accumulation seen in most”. Then `N[C@H]1C(O)O[C@H](CO)[C@@H](O)[C@@H]1O` (some centres unmarked) [Glucosamine, glucosamine], with “A uniform increase in peri-nuclear”.

Source of the values: patent US9051592B2, “Methods of ganglioside production” (Garnet BioTherapeutics, Inc., priority 2012, dated 2015).
